According to patent US20260209368A1 (PROMETHEUS BIOSCIENCES, published 2026):
These are yes or no findings as the source states them, for the method shown. Some results given as binding are weak or reduced against the parent protein; the word gives no strength.

Target: T1, DR3 receptor on human TF-1 cells (human) (UniProt Q93038)
T1 sequence (looked up): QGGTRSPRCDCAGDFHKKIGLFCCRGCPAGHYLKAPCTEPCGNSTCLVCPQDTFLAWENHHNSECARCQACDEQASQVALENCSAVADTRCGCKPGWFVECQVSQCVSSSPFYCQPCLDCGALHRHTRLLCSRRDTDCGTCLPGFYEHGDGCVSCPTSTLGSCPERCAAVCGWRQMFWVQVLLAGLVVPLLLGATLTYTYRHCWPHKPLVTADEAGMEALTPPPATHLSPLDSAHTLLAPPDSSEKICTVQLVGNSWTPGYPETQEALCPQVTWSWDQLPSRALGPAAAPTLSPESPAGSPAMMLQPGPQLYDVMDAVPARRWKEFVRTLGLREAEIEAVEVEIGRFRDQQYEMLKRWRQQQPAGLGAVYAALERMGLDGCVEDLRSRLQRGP
Assay: TF-1 cell caspase activation assay

- binding: binds
B1: recombinant cynomolgus monkey TL1A protein (ligand)
chain: LKGQEFAPSHQQVYAPLRADGDKPRAHLTVVRQTPTQHLKNQFPALHWEHELGLAFTKNRMNYTNKFLLIPESGDYFVYSQVTFRGMTSECSEIRQAGRPNKPDSITVVITKVTDSYPEPTQLLMGTKSVCEVGSNWFQPIYLGAMFSLQEGDKLMVNVSDISLVDYTKEDKTFFGAFLL
